Data published in publication PMC5768779.
These are yes or no findings as the source states them, for the method shown. Some binding calls cover weakened binding; strength is not graded here.

Chains of the proteins cited; added tags and fusions are not shown.
UniProt Q8TAF3: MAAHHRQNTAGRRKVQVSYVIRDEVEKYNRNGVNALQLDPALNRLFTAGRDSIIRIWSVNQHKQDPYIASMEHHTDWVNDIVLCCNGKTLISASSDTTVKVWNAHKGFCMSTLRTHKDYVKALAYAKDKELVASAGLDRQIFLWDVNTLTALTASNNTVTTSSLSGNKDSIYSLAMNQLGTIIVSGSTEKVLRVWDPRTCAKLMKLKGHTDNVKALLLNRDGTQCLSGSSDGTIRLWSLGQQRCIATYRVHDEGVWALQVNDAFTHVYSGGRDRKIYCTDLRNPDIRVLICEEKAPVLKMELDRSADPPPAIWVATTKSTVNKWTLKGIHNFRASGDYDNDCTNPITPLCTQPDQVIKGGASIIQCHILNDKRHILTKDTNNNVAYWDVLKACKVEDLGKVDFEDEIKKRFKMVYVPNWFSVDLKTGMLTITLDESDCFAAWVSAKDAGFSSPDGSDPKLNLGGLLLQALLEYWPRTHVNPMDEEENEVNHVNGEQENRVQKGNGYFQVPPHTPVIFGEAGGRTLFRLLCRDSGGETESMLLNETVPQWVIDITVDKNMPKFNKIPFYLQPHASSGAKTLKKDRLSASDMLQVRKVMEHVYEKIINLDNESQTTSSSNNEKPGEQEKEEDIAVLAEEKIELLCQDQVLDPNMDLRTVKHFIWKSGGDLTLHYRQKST

Molecular target: T1, USP1 (UniProt O94782)
T1 sequence: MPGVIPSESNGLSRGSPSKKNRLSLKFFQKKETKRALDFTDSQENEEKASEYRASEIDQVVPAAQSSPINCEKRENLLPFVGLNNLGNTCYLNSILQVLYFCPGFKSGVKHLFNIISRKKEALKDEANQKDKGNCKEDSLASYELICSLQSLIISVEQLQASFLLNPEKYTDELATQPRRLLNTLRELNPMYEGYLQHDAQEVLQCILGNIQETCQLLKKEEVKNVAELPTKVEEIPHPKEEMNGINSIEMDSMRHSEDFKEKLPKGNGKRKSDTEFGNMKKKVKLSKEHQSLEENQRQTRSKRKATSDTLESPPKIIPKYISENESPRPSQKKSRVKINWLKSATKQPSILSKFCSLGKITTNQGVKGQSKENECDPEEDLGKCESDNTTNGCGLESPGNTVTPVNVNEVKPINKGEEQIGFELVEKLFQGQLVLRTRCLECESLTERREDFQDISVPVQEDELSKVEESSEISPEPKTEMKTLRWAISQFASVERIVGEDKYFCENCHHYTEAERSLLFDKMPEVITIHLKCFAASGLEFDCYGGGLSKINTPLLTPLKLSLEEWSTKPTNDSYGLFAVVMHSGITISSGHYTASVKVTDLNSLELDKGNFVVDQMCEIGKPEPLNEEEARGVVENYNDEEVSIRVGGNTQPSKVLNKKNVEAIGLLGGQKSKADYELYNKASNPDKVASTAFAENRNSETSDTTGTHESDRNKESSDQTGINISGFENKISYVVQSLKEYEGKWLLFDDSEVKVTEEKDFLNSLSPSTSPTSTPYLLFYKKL
Assay: co-purification (His affinity, then Strep affinity, SEC); coexpressed in Sf9 cells; His-affinity column, then Strep-affinity column, then Superdex 200; 50 mM TRIS pH 8, 150 mM NaCl, 2 mM TCEP

Question: UAF1 (from UniProt Q8TAF3 1-677) was tested. Which binding did it give?
Answer: binds
